# Data published in PubChem BioAssay AID504467 (National Center for Advancing Translational Sciences (NCATS), 2011).
# Among all 330,000 compounds or so, about 7,700 (2.3%) were called active. Inconclusive means that the source gave no clear call. Such entries were picked first, then a sample of the others. Calls follow the shape of the dose curve; as a rule, active = well fitted inhibition curve with a large enough effect; inconclusive = small, poorly fitted or top-dose-only effect, or effect the other way; inactive = flat fitted curve, though single readings scatter. A potency beside an inconclusive call is a rough fit, not a confirmed value.
# Assay: qHTS screen for small molecules that inhibit ELG1-dependent DNA repair in human embryonic kidney (HEK293T) cells expressing luciferase-tagged ELG1; also: nearly all actives have a fitted effect of over 55% in size
# Conditions: HEK293T ELG1-luciferase reporter, luminescence, 16 h, DNA damage induced by 5-fluorouridine; activity change, negative = inhibition: at 46.1 µM (top of the series)
# In short: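 Cells (2,000 per well) received 5-fluorouridine plus test compound or DMSO and were incubated 16 hr at 37 °C, 5% CO2. Luciferase activity was read by luminescence 30 min after ONE-Glo addition; signal suppression marked inhibition of damage-induced ELG1 function.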
# % is scaled to controls: 0 for no effect and ±100 for the full control effect; potency is read from the fitted curve at half-maximal effect.
SMILES,Potency,"activity change, negative = inhibition"
CCN(CC)S(=O)(=O)c1cccc(-c2nnc(SCC(=O)c3cc(C)n(C)c3C)o2)c1,"inconclusive: 25.9 µM [inhibitor, single point]",
COc1ccc(OCc2cc(C(=O)NCC(C)(C)N3CCOCC3)no2)c(Cl)c1,inactive,
O=C(CCS(=O)(=O)c1ccccc1)OCC(=O)N1CCN(S(=O)(=O)c2ccc(Cl)cc2)CC1,"inconclusive: 2.06 µM [activator, partial curve, poor fit]",
COc1ccc(NC(=O)CN(C)S(=O)(=O)c2cccc3nsnc23)cc1OC,"inconclusive: 8.2 µM [inhibitor, partial curve]",
CCOc1ccc(NS(=O)(=O)c2ccc(OCC)c3ncccc23)cc1,"inconclusive: 20.6 µM [inhibitor, single point]",
COc1ccccc1NC(=O)Cn1c(CN2CCCCC2)nc2ccccc2c1=O,inactive,
Cc1ccc(OCCn2c(=O)sc3ccccc32)cc1,,inconclusive: 188% [activator]
CC(C)[C@H](NC(N)=O)C(=O)Nc1ccc2c(c1)CCC2,"inconclusive: 1.3 µM [inhibitor, single point]",
Cc1cc(C(=O)COc2cccc3cccnc23)c(C)n1C,"inconclusive: 23.1 µM [inhibitor, single point]",
CC(Sc1nnc(C2CC2)n1Cc1ccccc1)C(=O)N1CCNC1=O (centres undefined),inactive,
O=C(NCCNC(=O)c1ccccn1)c1ccccc1,inactive,
COc1ccc(CCNC2=CC(=O)CC(C)(C)C2)cc1,"inconclusive: 0.0366 µM [inhibitor, partial curve, poor fit]",
O=C(Nc1ccc(NC(=O)c2cccs2)cn1)c1ccccc1,"inconclusive: 2.31 µM [activator, full curve]",
Cc1ccc(OCc2cc(C(=O)N3CCN(C4CCCCC4)CC3)no2)cc1C,"inconclusive: 23.1 µM [activator, partial curve]",
C[C@H](CO)N1C[C@H](C)[C@H](CN(C)S(C)(=O)=O)Oc2c(cccc2N(C)C)C1=O,"inconclusive: 25.9 µM [activator, single point]",
O=C(Nc1ccc(S(=O)(=O)N2CCCCC2)cc1)C1CC(=O)N(c2ccccc2)C1 (centres undefined),inactive,
CCC(=O)Nc1c(S(=O)(=O)c2ccccc2)c2nc3ccccc3nc2n1C(C)c1ccccc1 (centres undefined),"inconclusive: 23.1 µM [inhibitor, single point]",
O=C(Nc1cccnc1)c1c(F)c(F)c(F)c(F)c1F,"inconclusive: 10.3 µM [inhibitor, partial curve, poor fit]",
Cc1ccc(SCC(=O)OCC(=O)NCCC2=CCCCC2)cc1,"inconclusive: 29.1 µM [activator, single point]",
NS(=O)(=O)c1ccc(CNc2ncnc3sccc23)cc1,inactive,
COc1cc(OC)c(OC)cc1/C=N/Nc1ncnc2c1[nH]c1ccc(C)cc12,"inconclusive: 6.51 µM [activator, partial curve]",
COc1ccc(Cc2nc3ccc(C(=O)N(C)CCc4cnn(C)c4)cc3o2)cc1OC,"inconclusive: 11.6 µM [inhibitor, partial curve]",

# Among those listed so far, 3 contain a halogen.
SMILES,Potency,"activity change, negative = inhibition"
COc1ccc(OCc2cc(C(=O)NCC(C)(C)N3CCOCC3)no2)c(Cl)c1,inactive,
O=C(CCS(=O)(=O)c1ccccc1)OCC(=O)N1CCN(S(=O)(=O)c2ccc(Cl)cc2)CC1,"inconclusive: 2.06 µM [activator, partial curve, poor fit]",
O=C(Nc1cccnc1)c1c(F)c(F)c(F)c(F)c1F,"inconclusive: 10.3 µM [inhibitor, partial curve, poor fit]",

# The list continues:

SMILES,Potency,"activity change, negative = inhibition"
COC(=O)c1cc(C(C)=O)c(C)[nH]c1=O,inactive,
O=C(NCCc1ccccc1)C(c1cccs1)N(C(=O)CCl)c1ccc(Cl)cc1 (centres undefined),active: 18.4 µM,
NC(=O)c1cc(S(=O)(=O)N2CCOCC2)ccc1Sc1ccccc1N,inactive,
COc1ccc(CCNCC(=O)Nc2ccccc2C(F)(F)F)cc1,inactive,
O=C(Nc1ccc(N2CCCCC2)c(C(=O)O)c1)c1ccco1,"inconclusive: 16.4 µM [activator, partial curve, poor fit]",
Cc1ccc(S(=O)(=O)N(C)C)cc1NC(=O)COC(=O)C1CCCC1,"inconclusive: 25.9 µM [activator, single point]",
COc1c(C(=O)Nc2nccs2)ccc2ccccc12,"inconclusive: 10.3 µM [activator, partial curve]",
COc1cc(-c2cccc([C@H]3[C@@H]4C=CC[C@@H](C)[C@@H]4C(=O)N3Cc3ccccc3)c2)cc(OC)c1OC,"inconclusive: 20.6 µM [inhibitor, partial curve]",
O=C(Nc1ccc([N+](=O)[O-])cc1)c1cccc(S(=O)(=O)Nc2cccnc2)c1,"inconclusive: 25.9 µM [inhibitor, partial curve, poor fit]",
O=C(NNc1c2ccccc2nc2ccccc12)c1ccccc1O,"inconclusive: 20.6 µM [inhibitor, single point]",
Cc1cccc(NC(=O)C2CC(=O)N(Cc3ccccc3)C2)n1 (centres undefined),"inconclusive: 3.66 µM [activator, single point]",
N#C/C(=N\Nc1ccc([N+](=O)[O-])cc1)C(=N)N1CCOCC1,"inconclusive: 23.1 µM [activator, single point]",
CCC(C)c1ccccc1NC(=O)COC(=O)c1ccc2c(c1)S(=O)(=O)c1ccccc1C2=O (centres undefined),inactive,
O=C(CSc1nc2ccccc2s1)N1CCOCC1,"inconclusive: 20.6 µM [activator, single point]",
O=C(Cc1ccccc1)Nc1ccc(-c2nnc(-c3ccco3)o2)cc1,inactive,
O=C(Nc1cccc(-c2cn3cccnc3n2)c1)c1ccc(Br)o1,"inconclusive: 20.6 µM [inhibitor, partial curve, poor fit]",
O=C(Cc1ccc(Br)cc1)OCC(=O)N1CCCCCC1,inactive,
COc1ccc(N(CC(=O)NCCSc2ccccn2)S(=O)(=O)c2ccccc2)c(OC)c1,inactive,
CCOC(=O)C1(Cc2cccc(Cl)c2)CCCN(C(=O)C(C)(C)C)C1 (centres undefined),inactive,
CC1CN(C2=N/C(=C/c3ccc4c(c3)OCO4)C(=O)N2)CC(C)O1 (centres undefined),active: 20.6 µM,
N#Cc1nc(-c2cccc3ccccc23)oc1NCCN1CCCCC1,"inconclusive: 32.6 µM [activator, partial curve, poor fit]",
COc1ccc(S(=O)(=O)N2CCN(C(=O)CN3C(=O)NC(C)(c4ccc5ccccc5c4)C3=O)CC2)cc1 (centres undefined),"inconclusive: 23.1 µM [inhibitor, single point]",
